The nature of this test: qHTS Assay for Modulators of Lamin A Splicing. The settings on record: HeLa LMNA splicing GFP/RFP minigene ratio, 48 h. The gist of the method:
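S3 HeLa cells stably expressing lamin A-EGFP splicing minigene plus DsRed2, 600 cells/well, 48 h compound exposure at 37C. Laser-scanning cytometry; analysed as GFP (500-530 nm)/RFP (575-640 nm) total intensity ratio; 0.5% DMSO vehicle.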

[1] abbreviates: measured here: RFP viability control channel.
Where [2] appears, read: measured here: GFP splicing reporter channel.

Values joined by “and” are separate entries in the source; they are usually repeats but may differ in a detail not shown here. Equal entries are not always repeated. The list shows a part of the results. Shown are side measurements of this screen, not its main read-out; they come without a call. The list favours compounds with an active or inconclusive main result. The note in brackets gives the kind of curve behind each potency; many fits are weak.

For the compound `Cc1ccc2nc(NC(=O)CCNS(=O)(=O)c3ccc(Br)s3)sc2c1`, the AC50 under setting [1] is 12.6 µM [rising, partial curve]. Regarding `COCCn1c(C)cc(C(=O)CSc2nc3ccccc3o2)c1C`, the AC50 was 1.58 µM [rising, partial curve] under setting [2] and 11.2 µM [rising, partial curve] under setting [1].

In the case of `CC(C)(C)n1nnnc1C(c1cccs1)N1CCN(Cc2ccc3c(c2)OCO3)CC1` (stereo not drawn), the AC50 under setting [1] is 7.08 µM [rising, partial curve]. In the case of `CCn1c(-c2ccccc2)csc1=Nc1ccc(O)cc1`, the AC50 under setting [2] is 14.1 µM [falling, partial curve, poor fit]. Take `O=C(Nc1cccc(C(=O)N2CCN(c3ccccc3)CC2)c1)c1nsc2ccccc12`: the AC50 under setting [2] is 0.282 µM [rising, single point]. On to `CCc1ccc(C2=C(C)C(N3CCC(C(=O)Nc4ccc(F)cc4)CC3)=NS2(=O)=O)cc1`, for which the concentration at half-maximal activity (AC50) is 22.4 µM [falling, single point] under setting [2] and 22.4 µM [falling, single point] under setting [1]. Take `O=C1/C(=C\c2cccnc2)CN(Cc2ccccc2)C/C1=C\c1cccnc1`: the AC50 reads like this: under setting [2], 3.55 µM [falling, single point]; under setting [1], 5.62 µM [falling, single point].

Regarding `O=C(N/N=C\c1ccc(O)c([N+](=O)[O-])c1)c1ccccc1-n1cccc1`, the AC50 under setting [1] is 17.8 µM [rising, single point]. In the case of `COc1cc([N+](=O)[O-])ccc1NC(=O)NCc1ccco1`, the AC50 under setting [2] is 0.891 µM [rising, full curve, poor fit] and the AC50 under setting [1] was 1 µM [rising, full curve]. As for `O=C1c2ccccc2C2=Nc3ccccc3SC(c3cccc(F)c3)C12` (stereo not drawn), the AC50 reads like this: under setting [2], 35.5 µM [rising, single point]; under setting [1], 35.5 µM [rising, partial curve]. Turning to `Fc1ccc(NC(=S)NCc2ccccc2Cl)cc1`, under setting [1], the AC50 is 11.2 µM [rising, partial curve]. Same read-out and setting: in the case of `CC(=O)c1cc2c(cc1NS(=O)(=O)c1ccc(C)cc1)OCCO2` it was 11.2 µM [rising, single point]. `CCc1nc(N)nc(N)c1-c1ccc(Cl)cc1`: the AC50 reads like this: under setting [2], 31.6 µM [rising, single point]; under setting [1], 31.6 µM [rising, single point]. As for `Cc1c(C(=O)NN2CCCCC2)nn(-c2ccc(Cl)cc2Cl)c1-c1ccc(I)cc1`, the AC50 runs as follows: under setting [2], 5.62 µM [rising, single point]; under setting [1], 3.98 µM [rising, full curve, poor fit]. Take `CC(=O)CSc1nc2cc3c(cc2cc1C#N)OCCO3`: the AC50 is 4.47 µM [rising, partial curve, poor fit] under setting [2] and 4.47 µM [rising, partial curve] under setting [1].

In the case of `Fc1ccc(-c2csc3ncnc(Cl)c23)cc1`, under setting [2], the AC50 was 35.5 µM [falling, single point].

Consider `COc1ccc(-c2nnc(OCc3ccccc3)c3ccccc23)cc1`, for which the AC50 reads like this: under setting [2], 25.1 µM [falling, partial curve, poor fit]; under setting [1], 22.4 µM [falling, single point]. For `CCOC(=O)CC(=O)CSc1nc2c(cc1C#N)CCCCCC2`, the AC50 under setting [1] is 17.8 µM [rising, single point].

As to `O=C(c1cc(-c2ccccc2)nc2ccccc12)N1CCOCC1`, the AC50 under setting [1] is 5.62 µM [rising, full curve, poor fit]. With `Cc1ccc(SCC(=O)NCc2ccncc2)cc1`, the AC50 under setting [2] is 31.6 µM [rising, single point] and the AC50 under setting [1] was 35.5 µM [rising, single point]. As for `CCCCc1c(C)nn(-c2nnc3c4ccccc4n(CC)c3n2)c1C`, under setting [1], the AC50 was 12.6 µM [rising, single point].

For the compound `COc1cccc(CNC(=O)CSc2nc3ccccc3nc2Cc2ccccc2)c1`, under setting [2], the AC50 is 0.447 µM [rising, full curve, poor fit]. Take `Cc1cccc(N=C2NN=C(c3ccc4c(c3)OCCO4)CS2)c1`: the AC50 by setting is: under setting [2], 12.6 µM [falling, partial curve]; under setting [1], 22.4 µM [falling, single point].

`COc1ccccc1NC(=S)N(Cc1ccco1)Cc1cc2cc(C)ccc2[nH]c1=O`: the AC50 under setting [1] was 2.82 µM [rising, full curve, poor fit]. `O=C(O)c1cccc(S(=O)(=O)N(Cc2ccccc2)c2ccccc2)c1`: the AC50 reads like this: under setting [2], 0.794 µM [falling, full curve, poor fit]; under setting [1], 1 µM [falling, single point]. For `Cc1ccc2c(c1)cc(C(=O)NCc1ccc(F)cc1)n2C`, the AC50 under setting [1] was 3.98 µM [rising, partial curve, poor fit]. Consider `Cc1cnc([N+](=O)[O-])n1CCOC(=O)NC(=O)c1c(F)cccc1F`, for which the AC50 under setting [2] was 6.31 µM [falling, partial curve, poor fit]. On the same count and under the same terms, to `CCOCC(=O)Nc1ccc(-c2cn3c(C)csc3n2)cc1` belongs 0.891 µM [rising, full curve, poor fit]. In the case of `CC(C)NCC(O)COc1ccc(CCOCC2CC2)cc1` (stereo not drawn), the AC50 runs as follows: under setting [2], 25.1 µM [falling, partial curve, poor fit] and 35.5 µM [falling, single point]; under setting [1], 25.1 µM [falling, partial curve] and 35.5 µM [falling, single point]. `CC(C)CC(=O)NC(Nc1ccc([N+](=O)[O-])cc1)C(Cl)(Cl)Cl` (stereo not drawn): the AC50 under setting [2] is 4.47 µM [rising, partial curve].

For the compound `Cc1ccc(NC(=O)Nc2nc3c(s2)CCCCCC3)cc1C`, the AC50 by setting is: under setting [2], 11.2 µM [falling, partial curve, poor fit]; under setting [1], 11.2 µM [falling, partial curve, poor fit].

As for `O=C(Nc1cccnc1)c1ccc(CN2CCc3ccccc3C2)cc1`, the AC50 by setting is: under setting [2], 12.6 µM [rising, partial curve, poor fit]; under setting [1], 17.8 µM [rising, partial curve]. In the case of `CC(=O)/C=C/c1ccccc1O`, the AC50 was 15.8 µM [rising, single point] under setting [2] and 12.6 µM [rising, partial curve, poor fit] under setting [1].

With `O=C(NC1CC(=O)N(c2ccc(F)cc2)C1)c1ccc(S(=O)(=O)N2CCCC2)cc1` (stereo not drawn), the AC50 runs as follows: under setting [2], 8.91 µM [falling, partial curve, poor fit]; under setting [1], 12.6 µM [falling, partial curve]. With `CCNc1ncc2nc(-c3ccc(OC)cc3)c(=O)n(Cc3cccs3)c2n1`, the AC50 was 12.6 µM [falling, single point] under setting [2] and 12.6 µM [falling, partial curve] under setting [1]. For the compound `COc1cc([C@H]2c3cc4c(cc3[C@@H](O[C@H]3O[C@H]5CO[C@@H](C)O[C@H]5[C@@H](O)[C@@H]3O)[C@@H]3COC(=O)[C@H]23)OCO4)cc(OC)c1O`, the AC50 by setting is: under setting [2], 0.00631 µM [falling, full curve]; under setting [1], 0.0355 µM [rising, full curve, poor fit].

As for `CC(=O)Nc1ccccc1OCC(=O)c1cc(C)n(Cc2cccs2)c1C`, the AC50 is 0.126 µM [rising, full curve] under setting [2] and 0.126 µM [rising, full curve] under setting [1].

Take `CCOC(=O)C1(Cc2cccc(OC)c2)CCN(Cc2ccc(OC)c(OC)c2)CC1`: under setting [2], the AC50 is 0.0631 µM [falling, full curve, poor fit]. The same measure, in the same setting: to `O=C(COc1nc2ccccc2nc1N1CCOCC1)Nc1ccc(S(=O)(=O)N2CCCC2)cc1` belongs 15.8 µM [rising, single point].

For `Clc1ccc2c(N/N=C/c3cccc(Br)c3)ccnc2c1`, the AC50 under setting [1] was 15.8 µM [rising, partial curve, poor fit]. On the same count and under the same terms, in the case of `Cc1cccc(NC(=S)NNC(=O)c2csc3c2CCC(C)C3)c1` (stereo not drawn) it was 35.5 µM [rising, single point].

As for `Cc1ccc(NC(=S)N(Cc2cccs2)Cc2cc3cc(C)ccc3[nH]c2=O)cc1`, the AC50 under setting [1] was 2.82 µM [rising, full curve].

Regarding `C#CCOc1ccc(/C=N/O)cc1Cl`, the AC50 under setting [1] was 35.5 µM [falling, partial curve, poor fit].

Take `COc1ccc(CNc2ccnc(-c3ccccc3OC)n2)c(OC)c1`: the AC50 under setting [2] is 8.91 µM [falling, partial curve]. Take `CCOc1cc(C(=S)N2CCC(O)CC2)ccc1OS(=O)(=O)c1ccc(Br)cc1`: the AC50 was 14.1 µM [rising, single point] under setting [2] and 15.8 µM [rising, single point] under setting [1]. As for `COc1ccccc1-c1cc(C(F)(F)F)nc(S(=O)(=O)CCCC(=O)NC(C)C)n1`, the AC50 runs as follows: under setting [2], 2.51 µM [falling, full curve]; under setting [1], 3.16 µM [falling, full curve]. Regarding `Cc1nc(SCc2ccccc2F)c2cnn(-c3ccccc3)c2n1`, the AC50 is 1.58 µM [falling, full curve] under setting [2] and 11.2 µM [rising, single point] under setting [1]. With `CCC1CCCCN1CCCNC(=O)Cn1nc(-c2ccccc2)ccc1=O` (stereo not drawn), the AC50 under setting [1] is 20 µM [rising, single point]. For `Cc1c(C(=O)NN2CCCCC2)nn(-c2ccc(Cl)cc2Cl)c1-c1ccc(Cl)cc1`, the concentration at half-maximal activity (AC50) is 0.000891 µM [falling, full curve, poor fit] under setting [2] and 0.000891 µM [falling, full curve, poor fit] under setting [1]. As for `Cc1cccc(CNc2ncnc3ccc(-c4ccoc4)cc23)c1`, the AC50 reads like this: under setting [2], 20 µM [falling, partial curve]; under setting [1], 11.2 µM [falling, partial curve]. For the compound `O=C(c1cc(COc2ccc(F)cc2F)on1)N1CCCC(c2ccccc2)C1` (stereo not drawn), the AC50 is, setting by setting: under setting [2], 11.2 µM [rising, partial curve]; under setting [1], 14.1 µM [rising, partial curve]. As for `Cc1ccc(NS(=O)(=O)c2cc(NC(=O)C(C)Oc3ccccc3)ccc2C)c(C)c1` (stereo not drawn), the AC50 under setting [1] was 35.5 µM [rising, single point].

Source of the values: PubChem BioAssay AID1487 (National Center for Advancing Translational Sciences (NCATS), 2009).
